For part of these data: Negatives hold for the conditions tested. For part of these data: Protein sequences can lack the tags named with them. For part of these data: Construct, isoform or probe ends are uncertain for at least one entry. For part of these data: Results from cells or extracts need not show a direct contact.
Legend:
[1] = tested on: soybean seed total protein extract (heat-denatured) (Glycine max); experiment: SPR; conditions: protein in an extract, protein details: NMIJ CRM 7511-a ground soybean, single-stranded DNA
[2] = tested on: peanut seed total protein extract (heat-denatured) (Arachis hypogaea); experiment: SPR; conditions: protein in an extract, single-stranded DNA
[3] = tested on: peanut seed total protein extract (undenatured) (Arachis hypogaea); experiment: SPR; conditions: 1-100 ppm, less than heat-denatured, protein in an extract, single-stranded DNA
[4] = biological target: T1, Ara h1 (heat-denatured, purified from parboiled peanut) (Arachis hypogaea) (UniProt P43238); experiment: SPR; conditions: all T replaced by 5-tryptaminocarbonyl-dU (TrpdU); 6.25-100 nM Ara h1; purified native protein; protein details: INDOOR biotechnologies NA-AH1-1; single-stranded DNA
T1 sequence (looked up, limits assumed): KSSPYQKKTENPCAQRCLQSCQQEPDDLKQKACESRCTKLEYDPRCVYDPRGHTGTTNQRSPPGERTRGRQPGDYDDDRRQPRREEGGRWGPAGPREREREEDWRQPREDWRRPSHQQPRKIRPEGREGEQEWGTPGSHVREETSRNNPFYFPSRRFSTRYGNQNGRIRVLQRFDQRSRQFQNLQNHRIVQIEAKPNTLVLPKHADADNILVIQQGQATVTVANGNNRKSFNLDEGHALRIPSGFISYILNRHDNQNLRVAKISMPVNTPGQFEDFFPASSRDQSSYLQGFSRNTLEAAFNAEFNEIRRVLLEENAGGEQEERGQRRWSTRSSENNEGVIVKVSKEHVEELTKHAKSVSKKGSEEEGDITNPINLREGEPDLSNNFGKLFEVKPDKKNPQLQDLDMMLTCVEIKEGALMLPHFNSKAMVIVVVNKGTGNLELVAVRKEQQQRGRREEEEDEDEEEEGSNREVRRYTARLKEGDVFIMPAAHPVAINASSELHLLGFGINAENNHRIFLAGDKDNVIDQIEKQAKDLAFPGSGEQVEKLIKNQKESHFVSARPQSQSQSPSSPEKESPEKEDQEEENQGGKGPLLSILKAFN

Chains of the proteins cited; added tags and fusions are not shown. Chains listed by the source or under a name are the forms on record and can include a tag or linker.
beta-conglycinin (heat-denatured, boiled 10 min) (Glycine max), one chain, as listed by the source, chain 2 of 3: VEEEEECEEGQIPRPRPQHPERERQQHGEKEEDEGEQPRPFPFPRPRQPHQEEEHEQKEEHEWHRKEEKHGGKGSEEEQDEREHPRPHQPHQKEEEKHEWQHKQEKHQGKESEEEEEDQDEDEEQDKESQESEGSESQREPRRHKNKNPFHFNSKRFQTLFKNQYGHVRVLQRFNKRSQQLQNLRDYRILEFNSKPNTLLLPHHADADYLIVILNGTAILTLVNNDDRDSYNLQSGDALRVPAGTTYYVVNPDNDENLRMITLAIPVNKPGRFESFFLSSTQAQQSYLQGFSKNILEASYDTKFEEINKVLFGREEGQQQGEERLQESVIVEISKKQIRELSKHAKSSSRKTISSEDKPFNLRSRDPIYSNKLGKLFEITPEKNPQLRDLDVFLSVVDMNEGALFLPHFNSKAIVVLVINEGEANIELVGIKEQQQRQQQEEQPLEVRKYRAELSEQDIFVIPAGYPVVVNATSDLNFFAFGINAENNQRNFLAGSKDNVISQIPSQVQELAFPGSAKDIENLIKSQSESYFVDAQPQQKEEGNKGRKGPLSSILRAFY
beta-conglycinin (heat-denatured, boiled 10 min) (Glycine max), one chain, as listed by the source, chain 1 of 3: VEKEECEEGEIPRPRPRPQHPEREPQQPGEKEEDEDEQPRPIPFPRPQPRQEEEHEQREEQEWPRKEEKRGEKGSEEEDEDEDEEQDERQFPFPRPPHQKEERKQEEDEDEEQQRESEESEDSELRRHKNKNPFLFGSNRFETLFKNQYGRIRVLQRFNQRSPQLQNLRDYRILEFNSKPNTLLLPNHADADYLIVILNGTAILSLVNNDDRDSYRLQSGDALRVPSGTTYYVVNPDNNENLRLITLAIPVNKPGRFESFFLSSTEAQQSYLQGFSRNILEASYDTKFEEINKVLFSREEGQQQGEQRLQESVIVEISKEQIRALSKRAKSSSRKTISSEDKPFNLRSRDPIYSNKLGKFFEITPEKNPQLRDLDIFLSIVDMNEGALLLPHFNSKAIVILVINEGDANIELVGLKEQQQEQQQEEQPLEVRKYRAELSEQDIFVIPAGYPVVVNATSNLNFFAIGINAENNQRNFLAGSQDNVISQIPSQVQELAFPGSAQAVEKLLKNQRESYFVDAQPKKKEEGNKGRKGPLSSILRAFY
beta-conglycinin (heat-denatured, boiled 10 min) (Glycine max), one chain, as listed by the source, chain 3 of 3: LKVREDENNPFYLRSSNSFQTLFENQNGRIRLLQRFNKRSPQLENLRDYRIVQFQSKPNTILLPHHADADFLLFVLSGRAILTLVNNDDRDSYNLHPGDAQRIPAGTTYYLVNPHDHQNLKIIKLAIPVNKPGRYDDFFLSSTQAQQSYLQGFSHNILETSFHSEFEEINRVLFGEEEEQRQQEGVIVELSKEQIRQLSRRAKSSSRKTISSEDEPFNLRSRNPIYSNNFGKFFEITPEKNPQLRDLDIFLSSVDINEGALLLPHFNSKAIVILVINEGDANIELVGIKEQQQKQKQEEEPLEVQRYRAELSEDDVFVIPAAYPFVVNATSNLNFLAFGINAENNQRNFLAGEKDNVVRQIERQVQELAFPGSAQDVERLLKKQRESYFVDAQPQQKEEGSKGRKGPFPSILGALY

[5] = biological target: T2, conarachin (heat-denatured, boiled 10 min) (Arachis hypogaea) (UniProt P43238); experiment: SPR; conditions: all T replaced by 5-tryptaminocarbonyl-dU (TrpdU); 3.125-50 nM; superior to undenatured; purified native protein; protein details: COSMO BIO CSB-CSB-NP003601PL, boiled; single-stranded DNA
T2 sequence (looked up, limits assumed): T1 sequence (looked up, limits assumed)

[6] = tested on: beta-conglycinin (heat-denatured, boiled 10 min) (Glycine max); experiment: SPR; conditions: all T replaced by 5-tryptaminocarbonyl-dU (TrpdU); little binding, 18.75-300 nM; purified native protein; protein details: Sigma C5868-5GM, boiled; single-stranded DNA
[7] = tested on: soybean seed total protein extract (undenatured) (Glycine max); experiment: SPR; conditions: little binding, 1-100 ppm, protein in an extract, protein details: NMIJ CRM 7511-a ground soybean, single-stranded DNA
[8] = tested on: beta-conglycinin (undenatured) (Glycine max); experiment: SPR; conditions: all T replaced by 5-tryptaminocarbonyl-dU (TrpdU); little binding, 18.75-300 nM; purified native protein; protein details: Sigma C5868-5GM; single-stranded DNA
[9] = tested on: soybean seed total protein extract (heat-denatured) (Glycine max); experiment: FP; conditions: 3-30 ppm protein, no change in polarization; protein in an extract; protein details: NMIJ CRM 7511-a ground soybean; label: 5'-FITC; single-stranded DNA
[10] = tested on: peanut seed total protein extract (heat-denatured) (Arachis hypogaea); experiment: FP; conditions: 1 nM FITC aptamer, 3-30 ppm protein, polarization rises with concentration; protein in an extract; label: 5'-FITC; single-stranded DNA
[11] = all T replaced by 5-tryptaminocarbonyl-dU (TrpdU)

Row | Sequence | binding result ([1]; no binding) | binding result ([2]; very high binding) | binding result [3] | binding result [7] | binding result ([1]; little binding) | binding result ([2]; total protein extract) | also measured
1 | CACACACACCCCCCCCCCCACACACAAAAAAAAAAAAAAAAAAAAAAAAA [CA25_C11] | no binding | binds | – | – | – | – | –
2 | GGATTCCGTGCCGTGCTAAAGGCCTCCCCGTTTATAGGCAGGTATCCGGCAGACTACTGGGCTTGCGACAAATGAAAAAAAAAAAAAAAAAAAAAAAA [P_NES_M01 (CONA170TEDAR2R8m1)] | – | – | – | – | – | – | binding result [3, 11]: binds; binding result [4]: binds; binding result [5]: binds; binding result [6]: no binding; binding result [7, 11]: no binding; binding result [8]: no binding; binding result ([1]; all T replaced by 5-tryptaminocarbonyl-dU (TrpdU), little binding): no binding; binding result ([2]; all T replaced by 5-tryptaminocarbonyl-dU (TrpdU), total protein extract): binds
3 | TTTTTTTTTTTTTTTTTTTTAAAAAAAAAAAAAAAAAAAAAAAA [PolydT20] | – | – | binds | no binding | no binding | binds | –
4 | CCCGCCTGTATTCCTGTCCAAAAAAAAAAAAAAAAAAAAAAAA [P_NES01 (NAH1128R7Am2s19G)] | – | – | binds | no binding | no binding | binds | –
5 | CTCTCTCTCTCCCCCCCTCTCTCTCAAAAAAAAAAAAAAAAAAAAAAAA [CT25_C7] | no binding | binds | – | – | – | – | –
6 | CTCTCTCTCTCTCTCTCTCTCTCTCAAAAAAAAAAAAAAAAAAAAAAAA [CT25_C0] | no binding | binds | – | – | – | – | –
7 | GTTCGTGGTGTGTTGTGTGTGATTCCAGGGACAAAAAAAAAAAAAAAAAAAAAAAA [P_NES03 (CONA161R2R8m1s32)] | – | – | binds | no binding | no binding | binds | –
8 | CTCTCTCTCCCCCCCCCCCTCTCTCAAAAAAAAAAAAAAAAAAAAAAAA [CT25_C11] | no binding | binds | – | – | – | – | –
9 | GTTTTCTAGGCCAATCTGATCAACAAAAAAAAAAAAAAAAAAAAAAAA [P_NES04 (CONA171NNHR2R8m2s24)] | – | – | binds | no binding | no binding | binds | –
10 | GAATCCGCGGGGTAGCGGTGGCGAGCGATTCAAAAAAAAAAAAAAAAAAAAAAAA [P_NES02 (CONA161R8m1s31)] | – | – | binds | no binding | no binding | binds | –
11 | CTCTCTCTCTCTCCCTCTCTCTCTCAAAAAAAAAAAAAAAAAAAAAAAA [CT25_C3 (Pyrimidine rich)] | – | – | binds | no binding | – | binds | binding result ([1]; little or no binding): no binding
12 | CACACACACACACCCACACACACACAAAAAAAAAAAAAAAAAAAAAAAAA [CA25_C3] | no binding | binds | – | – | – | – | –
13 | CACACACACACCCCCCCACACACACAAAAAAAAAAAAAAAAAAAAAAAAA [CA25_C7] | no binding | binds | – | – | – | – | –
14 | CACACACACACACACACACACACACAAAAAAAAAAAAAAAAAAAAAAAAA [CA25_C0] | no binding | binds | – | – | – | – | –
15 | TCTCTACCCCCCACCGCCCACGACTC [NAH1121NNH200R7m1s26] | – | – | – | – | – | – | binding result [9]: no binding; binding result [10]: binds

Source: patent US20160298117, “PEANUT-BINDING NUCLEIC ACID MOLECULE AND USE THEREOF” (NEC Solution Innovators, Ltd., published 2016)
